PubChem BioAssay AID1224830, NIAID, 2016
Test: 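Regulators of TLR4 signalling towards TNF-alpha in macrophage-like cells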 (primary screen). Cell system: human THP-1 monocytic leukaemia cells, TNF dual-luciferase reporter clone, PMA-differentiated to macrophage-like cells. Knock-down reagent: siRNA pool against human genes, 50 nM. Duration: LPS for 4 h, given about 3 days after siRNA transfection. Conditions: bacterial LPS (TLR4 ligand), 10 ng/ml. Detection: 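TNF firefly reporter luminescence divided by renilla, normalised to the plate median, then turned into a robust z-score for each replicate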. Direction: TNF reporter robust z-score: higher = stronger TNF reporter response to LPS. Hit rule: 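Each well counts as active if its z-score is over 2.8 or under -1.5; controls are left without a call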.
Shown is a random part of about 18,000 deposited reagents. Of all reagents, about 2,900 (16%) were called active. 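Calls are made per well; low scores hint the gene aids the LPS response, high scores that it dampens it.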 A number with no mark means an inactive call. Repeated entries: four replicate wells of each siRNA pool. No sequences are given here.

no.	Gene	TNF reporter robust z-score
1	MGST1	-1.06
2	MGST1	-1.08
3	MGST1	-0.92
4	MGST1	-0.79
5	ADISSP	1.52
6	ADISSP	-0.68
7	ADISSP	-0.62
8	ADISSP	-0.58
9	CYP1A1	2.04
10	CYP1A1	2.66
11	CYP1A1	2.32
12	CYP1A1	3.49 (active)
13	ANGPTL3	0.91
14	ANGPTL3	1.34
15	ANGPTL3	1.08
16	ANGPTL3	0.37
17	KLHDC3	0.06
18	KLHDC3	1.92
19	KLHDC3	1.16
20	KLHDC3	1.61
21	DNAJC30	0.48
22	DNAJC30	0.06
23	DNAJC30	-0.16
24	DNAJC30	0.9
25	CHI3L2	-0.69
26	CHI3L2	-0.11
27	CHI3L2	-0.54
28	CHI3L2	-0.61
29	ZNF620	-0.59
30	ZNF620	0.03
31	ZNF620	-0.8
32	ZNF620	-0.23
33	KAT14	0.3
34	KAT14	-0.5
35	KAT14	-0.62
36	KAT14	0.01
37	FBXO24	0.29
38	FBXO24	-1.93 (active)
39	FBXO24	1.1
40	FBXO24	3.02 (active)
41	DKK2	1.06
42	DKK2	0.27
43	DKK2	0.85
44	DKK2	0.19
45	CCR2	-2.28 (active)
46	CCR2	-1.91 (active)
47	CCR2	-1.1
48	CCR2	-1.86 (active)
49	TLL1	-1
50	TLL1	0.32
51	TLL1	-1.24
52	TLL1	-1.11
53	SERINC4	-0.28
54	SERINC4	0.19
55	SERINC4	-0.76
56	SERINC4	0.89
57	ANGEL1	1.06
58	ANGEL1	-0.07
59	ANGEL1	-0.89
60	ANGEL1	0.01
61	SFTPD	0.19
62	SFTPD	-1.26
63	SFTPD	-0.1
64	MAP1LC3B	-0.19
65	MAP1LC3B	0.06
66	MAP1LC3B	-1.43
67	MAP1LC3B	0.02
68	HECTD3	-0.3
69	HECTD3	-0.18
70	HECTD3	0.32
71	HECTD3	-0.45
72	PTTG1IP	-1.32
73	PTTG1IP	-1.05
74	PTTG1IP	-1.39
75	PTTG1IP	-0.98

Quoted from the listing (5 entries):
no.	Gene	TNF reporter robust z-score
27	CHI3L2	-0.54
28	CHI3L2	-0.61
29	ZNF620	-0.59
30	ZNF620	0.03
31	ZNF620	-0.8
